Source: publication PMC5067540
Results are given in words; binding and its absence hold for the method and conditions named. In cells and extracts the contact can be indirect. Some results given as binding are weak or reduced against the parent protein; the word gives no strength.

Chains of the proteins cited; added tags and fusions are not shown. Residues count along the entry.
UniProt P70206, residues 28-1894: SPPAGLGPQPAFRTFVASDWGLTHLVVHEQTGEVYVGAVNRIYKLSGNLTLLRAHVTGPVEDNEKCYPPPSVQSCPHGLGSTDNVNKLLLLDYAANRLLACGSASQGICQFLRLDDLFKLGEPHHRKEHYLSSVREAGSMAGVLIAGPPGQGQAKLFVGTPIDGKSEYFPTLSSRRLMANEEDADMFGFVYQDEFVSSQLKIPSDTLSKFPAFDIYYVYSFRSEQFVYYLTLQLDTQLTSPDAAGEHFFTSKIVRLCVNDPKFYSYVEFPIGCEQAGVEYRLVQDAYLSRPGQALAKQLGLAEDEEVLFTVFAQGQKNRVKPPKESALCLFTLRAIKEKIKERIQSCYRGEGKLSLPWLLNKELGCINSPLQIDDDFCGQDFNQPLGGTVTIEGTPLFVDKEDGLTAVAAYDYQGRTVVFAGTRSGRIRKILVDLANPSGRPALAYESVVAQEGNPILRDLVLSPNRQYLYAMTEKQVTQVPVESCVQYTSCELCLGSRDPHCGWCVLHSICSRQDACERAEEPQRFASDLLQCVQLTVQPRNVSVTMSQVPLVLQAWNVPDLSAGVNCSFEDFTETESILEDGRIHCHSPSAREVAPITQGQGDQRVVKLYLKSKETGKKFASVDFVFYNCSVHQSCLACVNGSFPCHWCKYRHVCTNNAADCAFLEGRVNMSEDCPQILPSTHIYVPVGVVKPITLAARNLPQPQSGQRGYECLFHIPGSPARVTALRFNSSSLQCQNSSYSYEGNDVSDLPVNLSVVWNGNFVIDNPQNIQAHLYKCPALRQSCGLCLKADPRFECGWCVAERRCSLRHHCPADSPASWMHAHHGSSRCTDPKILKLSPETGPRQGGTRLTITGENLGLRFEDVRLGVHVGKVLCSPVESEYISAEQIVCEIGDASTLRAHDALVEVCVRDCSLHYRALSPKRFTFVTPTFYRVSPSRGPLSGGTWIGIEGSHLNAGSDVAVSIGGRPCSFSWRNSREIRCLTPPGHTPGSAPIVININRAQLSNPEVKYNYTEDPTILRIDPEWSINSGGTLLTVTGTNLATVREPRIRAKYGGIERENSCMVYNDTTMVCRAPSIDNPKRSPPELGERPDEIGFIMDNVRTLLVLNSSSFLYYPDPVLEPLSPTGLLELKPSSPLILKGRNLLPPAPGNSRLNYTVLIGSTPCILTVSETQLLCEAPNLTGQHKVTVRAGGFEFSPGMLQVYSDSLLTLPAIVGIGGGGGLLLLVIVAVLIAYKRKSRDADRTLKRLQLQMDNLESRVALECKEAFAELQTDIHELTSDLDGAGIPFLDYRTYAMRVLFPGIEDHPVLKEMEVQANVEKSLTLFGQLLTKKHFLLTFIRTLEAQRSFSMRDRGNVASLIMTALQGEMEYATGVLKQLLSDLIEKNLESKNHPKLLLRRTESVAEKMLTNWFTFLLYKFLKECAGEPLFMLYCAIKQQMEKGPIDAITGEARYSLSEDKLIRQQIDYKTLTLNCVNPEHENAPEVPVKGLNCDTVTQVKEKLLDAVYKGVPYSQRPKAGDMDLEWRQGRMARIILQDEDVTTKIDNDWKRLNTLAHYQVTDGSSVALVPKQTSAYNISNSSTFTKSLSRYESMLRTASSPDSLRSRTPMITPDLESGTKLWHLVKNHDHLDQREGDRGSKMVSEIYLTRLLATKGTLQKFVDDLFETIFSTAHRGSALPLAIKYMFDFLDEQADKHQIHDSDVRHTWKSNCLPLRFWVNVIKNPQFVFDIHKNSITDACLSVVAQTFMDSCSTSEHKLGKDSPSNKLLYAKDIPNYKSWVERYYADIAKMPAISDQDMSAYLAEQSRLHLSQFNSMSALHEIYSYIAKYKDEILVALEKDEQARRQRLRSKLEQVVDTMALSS
UniProt O54885, residues 22-114: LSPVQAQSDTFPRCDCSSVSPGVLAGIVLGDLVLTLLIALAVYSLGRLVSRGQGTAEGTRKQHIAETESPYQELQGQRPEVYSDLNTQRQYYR

Columns and labels:
[1] = target: plexinA1 (mouse (endogenous in BMSC and RAW264.7)) (UniProt P70206); experiment: co-IP; RAW264.7 cells treated with RANKL for 4 days with OS, wedelolactone, BMSC conditioned media (CM1) or wedelolactone-treated 9-day conditioned media (CM2); RIPA lysate; PlexinA1 antibody overnight at 4°C, protein A or G agarose; Western blot
[2] = target: plexinA1 (mouse (endogenous in BMSC and RAW264.7)) (UniProt P70206); experiment: co-IP; mouse BMSC treated with or without 2 μg/ml wedelolactone (and Sema3A antibody) for 9 days; RIPA lysate; PlexinA1 antibody overnight at 4°C, protein A or G agarose; Western blot

binding [1]	binding [2]	Molecule
binds		DNAX-activating protein 12 (DAP12) (from UniProt O54885 22-114)
binds	binds	neuropilin (NRP)1 (from UniProt P97333 22-923) (receptor)
	binds	semaphorin 3A (Sema3A) (ligand, UniProt O08665 21-772) NYANGKNNVPRLKLSYKEMLESNNVITFNGLANSSSYHTFLLDEERSRLYVGAKDHIFSFNLVNIKDFQKIVWPVSYTRRDECKWAGKDILKECANFIKVLEAYNQTHLYACGTGAFHPICTYIEVGHHPEDNIFKLQDSHFENGRGKSPYDPKLLTASLLIDGELYSGTAADFMGRDFAIFRTLGHHHPIRTEQHDSRWLNDPRFISAHLIPESDNPEDDKVYFFFRENAIDGEHSGKATHARIGQICKNDFGGHRSLVNKWTTFLKARLICSVPGPNGIDTHFDELQDVFLMNSKDPKNPIVYGVFTTSSNIFKGSAVCMYSMSDVRRVFLGPYAHRDGPNYQWVPYQGRVPYPRPGTCPSKTFGGFDSTKDLPDDVITFARSHPAMYNPVFPINNRPIMIKTDVNYQFTQIVVDRVDAEDGQYDVMFIGTDVGTVLKVVSVPKETWHDLEEILLEEMTVFREPTTISAMELSTKQQQLYIGSTAGVAQLPLHRCDIYGKACAECCLARDPYCAWDGSSCSRYFPTAKRRTRRQDIRNGDPLTHCSDLQHHDNHHGPSLEERIIYGVENSSTFLECSPKSQRALVYWQFQRRNEDRKEEIRMGDHIIRTEQGLLLRSLQKKDSGNYLCHAVEHGFMQTLLKVTLEVIDTEHLEELLHKDDDGDGSKIKEMSSSMTPSQKVWYRDFMQLINHPNLNTMDEFCEQVWKRDRKQRRQRPGHSQGSSNKWKHMQESKKGRNRRTHEFERAPRSV
